No constants are given. Whether binding was seen depends on the method and setting. In cells and extracts the contact can be indirect. Some entries that bind do so weakly or less than the wild type.
B1: PUMA (endogenous, murine leukemia cells) (protein, UniProt Q99ML1 1-193, looked up)
chain: MARARQEGSSPEPVEGLARDSPRPFPLGRLMPSAVSCSLCEPGLPAAPAAPALLPAAYLCAPTAPPAVTAALGGPRWPGGHRSRPRGPRPDGPQPSLSPAQQHLESPVPSAPEALAGGPTQAAPGVRVEEEEWAREIGAQLRRMADDLNAQYERRRQEEQHRHRPSPWRVMYNLFMGLLPLPRDPGAPEMEPN

Amino acid sequences for entries named in this document (tags omitted).
UniProt P10415: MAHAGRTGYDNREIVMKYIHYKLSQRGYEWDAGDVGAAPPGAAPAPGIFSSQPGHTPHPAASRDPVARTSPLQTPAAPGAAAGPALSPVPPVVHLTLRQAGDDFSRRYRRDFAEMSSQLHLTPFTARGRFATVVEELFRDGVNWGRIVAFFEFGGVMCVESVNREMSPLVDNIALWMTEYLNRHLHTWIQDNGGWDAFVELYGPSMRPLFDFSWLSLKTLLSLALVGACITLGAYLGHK
UniProt O54918: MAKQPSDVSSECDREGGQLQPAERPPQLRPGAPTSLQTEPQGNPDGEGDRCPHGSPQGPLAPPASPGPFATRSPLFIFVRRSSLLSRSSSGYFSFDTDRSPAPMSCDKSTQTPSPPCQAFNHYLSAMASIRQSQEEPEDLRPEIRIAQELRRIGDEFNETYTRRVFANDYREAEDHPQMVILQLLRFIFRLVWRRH

What was measured:
[1] = biological target: human BCL-2 (cellular, whole protein) (human) (UniProt P10415); assay: co-immunoprecipitation with anti-human BCL-2 antibody from FL5.12-BCL-2 lysates, immunoblot
[2] = biological target: human BCL-2 (cellular, whole protein) (human) (UniProt P10415); assay: co-immunoprecipitation with anti-human BCL-2 antibody from murine leukemia cell lysate, immunoblot

Molecule	binding [1]	binding [2]
BIM (endogenous, murine cells) (from UniProt O54918 1-196)	binds	binds
B1	–	binds

— patent publication US20160258933A1 (Dana-Farber, published 2016)
